Measurements taken from publication PMC6027488.
Results are given in words; binding and its absence hold for the method and conditions named. Some entries that bind do so weakly or less than the wild type.

Sequences of proteins named here, by UniProt entry; tags and fusion partners are left off. Residues count along the entry.
UniProt P01005, residues 25-210: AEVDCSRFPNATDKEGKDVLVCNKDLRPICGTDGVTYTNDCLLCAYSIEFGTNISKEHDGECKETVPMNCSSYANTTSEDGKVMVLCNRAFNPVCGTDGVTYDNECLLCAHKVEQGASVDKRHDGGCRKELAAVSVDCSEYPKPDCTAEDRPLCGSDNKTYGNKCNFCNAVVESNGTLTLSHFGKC

Biological target: ovomucoid from chicken egg (chicken) (UniProt P01005)
Assay: peptide or protein array; animal gastrointestinal mucin microarray (mucins printed on Nexterion slide H); TFF1 dimer at 1, 5, 10 and 50 µg/mL in PBS, 1 h at 37 °C; detected with monoclonal TFF1 antibody 14H3 and Cy5-labelled goat anti-mouse antibody; one experiment; both purified

B1: Recombinant human TFF1 dimer (protein, UniProt P04155 25-84)
chain: EAQTETCTVAPRERQNCGFPGVTPSQCANKGCCFDDTVRGVPWCFYPNTIDVPPEEECEF
Question: Which binding does the source give for B1 here?
Answer: binds
